Source: the supplement of paper PMC10849652
This is one part of the list.

Protein sequences, listed by entry. Tags and fused reporters are not part of them. Lines headed by an entry give the natural chain unless they say otherwise; changes in a name come on top.
UniProt Q9Y2P8: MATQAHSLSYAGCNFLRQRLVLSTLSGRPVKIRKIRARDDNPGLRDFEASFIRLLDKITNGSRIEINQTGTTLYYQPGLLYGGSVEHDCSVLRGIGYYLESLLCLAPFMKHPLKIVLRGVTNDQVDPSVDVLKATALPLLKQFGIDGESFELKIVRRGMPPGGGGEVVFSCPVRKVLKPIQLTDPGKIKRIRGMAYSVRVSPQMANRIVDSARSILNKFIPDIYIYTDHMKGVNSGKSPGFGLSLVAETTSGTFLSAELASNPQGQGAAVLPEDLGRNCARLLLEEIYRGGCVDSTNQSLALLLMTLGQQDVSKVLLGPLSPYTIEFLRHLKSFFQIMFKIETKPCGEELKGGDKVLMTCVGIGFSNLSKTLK
UniProt P22670: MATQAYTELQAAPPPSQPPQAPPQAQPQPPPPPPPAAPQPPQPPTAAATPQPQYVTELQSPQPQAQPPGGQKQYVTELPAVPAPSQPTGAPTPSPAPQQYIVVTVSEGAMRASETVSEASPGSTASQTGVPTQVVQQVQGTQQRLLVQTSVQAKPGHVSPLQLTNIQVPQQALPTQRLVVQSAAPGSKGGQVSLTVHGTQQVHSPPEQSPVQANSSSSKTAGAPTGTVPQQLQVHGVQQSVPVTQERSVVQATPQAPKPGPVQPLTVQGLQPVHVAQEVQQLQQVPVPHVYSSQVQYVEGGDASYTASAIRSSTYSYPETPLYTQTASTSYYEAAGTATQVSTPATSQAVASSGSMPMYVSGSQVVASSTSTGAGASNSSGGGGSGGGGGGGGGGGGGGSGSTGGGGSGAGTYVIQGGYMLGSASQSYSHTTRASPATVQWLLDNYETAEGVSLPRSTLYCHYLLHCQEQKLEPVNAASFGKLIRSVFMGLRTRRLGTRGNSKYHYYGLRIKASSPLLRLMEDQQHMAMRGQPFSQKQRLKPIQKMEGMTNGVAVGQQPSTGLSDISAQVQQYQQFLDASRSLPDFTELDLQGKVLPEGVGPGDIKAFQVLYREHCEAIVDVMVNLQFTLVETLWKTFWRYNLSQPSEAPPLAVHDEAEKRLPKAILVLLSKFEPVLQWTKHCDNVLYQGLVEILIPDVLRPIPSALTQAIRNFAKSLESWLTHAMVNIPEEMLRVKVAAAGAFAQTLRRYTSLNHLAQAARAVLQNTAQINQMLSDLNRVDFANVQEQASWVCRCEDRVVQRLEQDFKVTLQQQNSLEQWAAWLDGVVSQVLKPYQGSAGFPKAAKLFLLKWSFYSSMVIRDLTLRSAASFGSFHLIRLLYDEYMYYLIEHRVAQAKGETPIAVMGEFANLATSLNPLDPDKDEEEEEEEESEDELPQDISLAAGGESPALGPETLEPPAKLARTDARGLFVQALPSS
UniProt Q8IXI1, whole entry, looked up: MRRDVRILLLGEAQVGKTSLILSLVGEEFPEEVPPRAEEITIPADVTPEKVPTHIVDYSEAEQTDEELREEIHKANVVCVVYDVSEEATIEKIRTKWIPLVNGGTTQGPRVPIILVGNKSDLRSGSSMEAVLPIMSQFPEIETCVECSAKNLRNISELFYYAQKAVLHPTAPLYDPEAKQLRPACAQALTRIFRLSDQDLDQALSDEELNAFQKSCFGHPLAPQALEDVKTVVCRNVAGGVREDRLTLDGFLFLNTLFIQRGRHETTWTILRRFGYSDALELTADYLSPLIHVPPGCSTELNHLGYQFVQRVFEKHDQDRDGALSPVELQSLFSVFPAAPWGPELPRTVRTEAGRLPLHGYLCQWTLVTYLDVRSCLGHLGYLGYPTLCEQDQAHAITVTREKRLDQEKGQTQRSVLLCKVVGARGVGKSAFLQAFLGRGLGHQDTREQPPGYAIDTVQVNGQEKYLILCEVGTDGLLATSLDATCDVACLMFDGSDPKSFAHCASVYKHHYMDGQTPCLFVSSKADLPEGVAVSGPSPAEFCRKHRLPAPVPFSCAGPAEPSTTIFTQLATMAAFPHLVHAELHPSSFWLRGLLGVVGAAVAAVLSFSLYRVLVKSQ
UniProt Q96A37: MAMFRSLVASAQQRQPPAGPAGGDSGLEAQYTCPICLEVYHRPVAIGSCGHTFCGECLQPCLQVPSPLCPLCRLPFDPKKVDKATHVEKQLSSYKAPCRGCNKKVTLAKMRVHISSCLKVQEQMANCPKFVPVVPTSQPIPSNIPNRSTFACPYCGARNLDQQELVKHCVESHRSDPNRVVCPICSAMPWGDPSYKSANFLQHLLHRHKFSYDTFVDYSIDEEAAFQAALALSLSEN
UniProt O43567: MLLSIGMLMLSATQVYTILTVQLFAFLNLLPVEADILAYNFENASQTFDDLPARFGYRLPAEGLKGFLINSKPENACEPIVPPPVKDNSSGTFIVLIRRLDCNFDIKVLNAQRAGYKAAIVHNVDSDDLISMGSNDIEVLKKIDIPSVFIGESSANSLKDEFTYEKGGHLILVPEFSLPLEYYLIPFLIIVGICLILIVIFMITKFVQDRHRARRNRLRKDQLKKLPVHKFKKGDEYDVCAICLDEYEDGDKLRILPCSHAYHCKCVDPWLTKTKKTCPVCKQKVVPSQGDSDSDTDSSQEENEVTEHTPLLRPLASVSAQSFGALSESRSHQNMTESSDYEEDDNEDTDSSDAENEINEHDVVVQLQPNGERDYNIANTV
UniProt Q9BVS4: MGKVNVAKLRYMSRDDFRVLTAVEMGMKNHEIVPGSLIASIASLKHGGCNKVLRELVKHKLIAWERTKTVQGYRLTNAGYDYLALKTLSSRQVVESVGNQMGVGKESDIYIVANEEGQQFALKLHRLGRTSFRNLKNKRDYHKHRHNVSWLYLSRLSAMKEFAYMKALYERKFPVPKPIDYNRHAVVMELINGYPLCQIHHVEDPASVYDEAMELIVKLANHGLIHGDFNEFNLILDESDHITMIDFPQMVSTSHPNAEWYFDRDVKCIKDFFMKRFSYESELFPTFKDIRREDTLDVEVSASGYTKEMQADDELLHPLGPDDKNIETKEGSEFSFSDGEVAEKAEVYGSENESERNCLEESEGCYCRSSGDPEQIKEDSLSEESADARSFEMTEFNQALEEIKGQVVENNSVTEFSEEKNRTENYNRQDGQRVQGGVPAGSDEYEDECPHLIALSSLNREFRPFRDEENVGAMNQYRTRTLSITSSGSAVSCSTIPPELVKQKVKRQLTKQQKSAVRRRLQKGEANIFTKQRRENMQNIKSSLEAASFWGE
UniProt Q9NWS8: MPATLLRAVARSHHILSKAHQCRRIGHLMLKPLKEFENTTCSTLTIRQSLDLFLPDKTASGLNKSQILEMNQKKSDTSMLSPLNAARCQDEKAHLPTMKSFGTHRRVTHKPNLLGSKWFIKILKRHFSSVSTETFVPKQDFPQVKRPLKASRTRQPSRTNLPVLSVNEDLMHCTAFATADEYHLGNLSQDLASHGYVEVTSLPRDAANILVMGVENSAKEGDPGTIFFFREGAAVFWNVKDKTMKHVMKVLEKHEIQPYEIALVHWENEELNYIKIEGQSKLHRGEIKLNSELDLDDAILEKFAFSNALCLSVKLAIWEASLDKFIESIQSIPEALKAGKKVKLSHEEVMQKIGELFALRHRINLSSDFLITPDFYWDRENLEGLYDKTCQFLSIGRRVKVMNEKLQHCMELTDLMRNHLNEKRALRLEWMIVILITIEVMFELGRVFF
UniProt Q5XPI4: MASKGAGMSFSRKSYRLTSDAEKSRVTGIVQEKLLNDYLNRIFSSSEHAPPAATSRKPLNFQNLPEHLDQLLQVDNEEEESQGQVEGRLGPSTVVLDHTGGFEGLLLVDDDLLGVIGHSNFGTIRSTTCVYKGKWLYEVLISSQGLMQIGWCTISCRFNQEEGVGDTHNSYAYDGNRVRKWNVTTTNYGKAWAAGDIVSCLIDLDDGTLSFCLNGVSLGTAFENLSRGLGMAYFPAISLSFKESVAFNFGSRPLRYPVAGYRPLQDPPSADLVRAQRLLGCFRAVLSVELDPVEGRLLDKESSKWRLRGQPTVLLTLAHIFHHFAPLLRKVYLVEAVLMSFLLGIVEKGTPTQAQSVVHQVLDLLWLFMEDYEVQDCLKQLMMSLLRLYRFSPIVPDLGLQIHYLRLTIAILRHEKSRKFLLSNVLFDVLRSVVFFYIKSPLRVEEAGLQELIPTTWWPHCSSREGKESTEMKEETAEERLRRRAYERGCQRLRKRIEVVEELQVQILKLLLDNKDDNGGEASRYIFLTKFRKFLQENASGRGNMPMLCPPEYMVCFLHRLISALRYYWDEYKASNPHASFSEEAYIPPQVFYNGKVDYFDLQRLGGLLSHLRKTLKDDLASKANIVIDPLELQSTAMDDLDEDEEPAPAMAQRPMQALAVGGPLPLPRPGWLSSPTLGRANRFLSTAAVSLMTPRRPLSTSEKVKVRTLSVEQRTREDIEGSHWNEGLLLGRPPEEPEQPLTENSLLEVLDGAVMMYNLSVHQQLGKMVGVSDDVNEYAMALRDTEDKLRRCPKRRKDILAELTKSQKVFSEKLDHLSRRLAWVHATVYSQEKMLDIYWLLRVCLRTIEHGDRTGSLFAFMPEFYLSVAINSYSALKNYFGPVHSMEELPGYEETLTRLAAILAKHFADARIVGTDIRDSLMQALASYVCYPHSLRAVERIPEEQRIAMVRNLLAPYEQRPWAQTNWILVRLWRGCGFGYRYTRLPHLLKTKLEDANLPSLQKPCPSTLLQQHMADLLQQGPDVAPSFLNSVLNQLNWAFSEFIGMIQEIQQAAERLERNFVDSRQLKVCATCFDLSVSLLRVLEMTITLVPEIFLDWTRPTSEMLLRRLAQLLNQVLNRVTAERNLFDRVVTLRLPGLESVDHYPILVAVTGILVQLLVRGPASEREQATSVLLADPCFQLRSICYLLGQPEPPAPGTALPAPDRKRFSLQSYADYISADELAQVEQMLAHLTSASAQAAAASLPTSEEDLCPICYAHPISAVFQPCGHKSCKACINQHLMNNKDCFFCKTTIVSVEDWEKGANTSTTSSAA
UniProt Q9Y580: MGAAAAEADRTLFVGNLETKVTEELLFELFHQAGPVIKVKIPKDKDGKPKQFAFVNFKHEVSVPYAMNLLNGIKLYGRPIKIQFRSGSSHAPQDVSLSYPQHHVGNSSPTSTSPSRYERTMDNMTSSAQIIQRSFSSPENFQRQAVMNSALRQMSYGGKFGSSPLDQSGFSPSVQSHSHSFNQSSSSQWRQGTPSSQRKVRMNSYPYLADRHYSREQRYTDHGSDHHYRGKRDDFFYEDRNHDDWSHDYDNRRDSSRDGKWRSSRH
UniProt Q96NA2: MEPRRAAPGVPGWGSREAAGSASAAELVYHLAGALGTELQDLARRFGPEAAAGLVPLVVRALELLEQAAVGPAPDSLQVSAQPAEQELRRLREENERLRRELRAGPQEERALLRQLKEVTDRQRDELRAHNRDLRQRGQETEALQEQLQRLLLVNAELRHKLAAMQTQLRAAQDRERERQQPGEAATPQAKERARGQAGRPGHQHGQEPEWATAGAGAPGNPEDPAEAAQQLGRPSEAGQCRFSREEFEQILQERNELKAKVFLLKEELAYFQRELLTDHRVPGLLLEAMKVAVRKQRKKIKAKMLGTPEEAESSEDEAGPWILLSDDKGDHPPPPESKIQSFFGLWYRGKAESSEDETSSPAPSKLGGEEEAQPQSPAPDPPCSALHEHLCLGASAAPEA
UniProt O43353, whole entry, looked up: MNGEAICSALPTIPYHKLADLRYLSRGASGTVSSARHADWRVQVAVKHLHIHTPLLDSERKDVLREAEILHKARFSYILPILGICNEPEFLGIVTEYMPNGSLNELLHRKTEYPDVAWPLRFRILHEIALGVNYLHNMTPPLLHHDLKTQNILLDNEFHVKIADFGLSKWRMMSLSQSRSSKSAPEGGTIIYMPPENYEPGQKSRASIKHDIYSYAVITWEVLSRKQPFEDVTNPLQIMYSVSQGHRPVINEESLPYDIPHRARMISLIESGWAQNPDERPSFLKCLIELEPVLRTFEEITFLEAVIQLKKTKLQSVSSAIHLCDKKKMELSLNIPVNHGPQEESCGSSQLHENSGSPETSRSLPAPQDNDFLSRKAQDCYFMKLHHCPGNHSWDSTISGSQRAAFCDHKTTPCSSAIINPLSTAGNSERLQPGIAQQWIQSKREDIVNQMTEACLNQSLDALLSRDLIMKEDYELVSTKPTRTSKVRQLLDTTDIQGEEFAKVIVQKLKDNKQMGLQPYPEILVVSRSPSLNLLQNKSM
UniProt P38159: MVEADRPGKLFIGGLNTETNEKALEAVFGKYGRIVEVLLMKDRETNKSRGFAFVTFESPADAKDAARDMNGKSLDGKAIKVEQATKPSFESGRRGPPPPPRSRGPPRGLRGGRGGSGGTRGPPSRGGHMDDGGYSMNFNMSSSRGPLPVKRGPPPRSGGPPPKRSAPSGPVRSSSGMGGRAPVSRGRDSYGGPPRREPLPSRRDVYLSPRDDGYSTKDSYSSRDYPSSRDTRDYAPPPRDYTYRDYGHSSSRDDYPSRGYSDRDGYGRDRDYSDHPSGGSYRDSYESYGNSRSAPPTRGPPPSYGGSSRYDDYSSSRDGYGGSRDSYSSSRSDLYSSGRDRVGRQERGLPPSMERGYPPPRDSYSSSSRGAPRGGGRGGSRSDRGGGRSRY

Key:
Assay in all cases: log2 fold change, soluble protein after heating vs DMSO (PISA); higher = thermal stabilisation; K562 cells, 10 uM, 30 min; active = over 0.2 and 3.5 SD of the protein, either way, in both replicates (recomputed)
saracatinib = compound: CN1CCN(CCOc2cc(OC3CCOCC3)c3c(Nc4c(Cl)ccc5c4OCO5)ncnc3c2)CC1 [saracatinib]
In short: (§1)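 K562 cells at 2×10^6 cells/mL were given 10 μM compound for 30 min. Aliquots then went through 3 min of heating across 48°C-58°C, were pooled, and were extracted in PBS with 0.5% NP-40 at 4°C, and the supernatant after 21,000xg for 90 min was quantified by TMTpro 16plex LC-MS/MS with channel sums equalised. Thermal stability relative to control samples, from duplicates, is given as log2 fold change.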

sotrastaurin = compound: CN1CCN(c2nc(C3=C(c4c[nH]c5ccccc45)C(=O)NC3=O)c3ccccc3n2)CC1 [sotrastaurin]
In short: as §1

alvocidib = compound: CN1CC[C@H](c2c(O)cc(O)c3c(=O)cc(-c4ccccc4Cl)oc23)[C@H](O)C1 [alvocidib]
In short: as §1

Tubastatin A = compound: CN1CCc2c(c3ccccc3n2Cc2ccc(C(=O)NO)cc2)C1 [Tubastatin A]
In short: as §1

[1] = compound: CNC(=O)C1=CC=CC=C1NC2=NC(=NC=C2Cl)NC3=C(C=C(C=C3)N4CCOCC4)OC
In short: as §1

defactinib = compound: CNC(=O)c1ccc(Nc2ncc(C(F)(F)F)c(NCc3nccnc3N(C)S(C)(=O)=O)n2)cc1 [defactinib]
In short: as §1

rucaparib = compound: CNCc1ccc(-c2[nH]c3cc(F)cc4c3c2CCNC4=O)cc1 [rucaparib]
In short: as §1

[2] = compound: CNc1nc(-c2ccc3c(N)n[nH]c3c2)cc(N2C[C@@H](C(=O)NC3CCCCC3)CC[C@H]2C)n1
In short: as §1

encorafenib = compound: COC(=O)N[C@@H](C)CNc1nccc(-c2cn(C(C)C)nc2-c2cc(Cl)cc(NS(C)(=O)=O)c2F)n1 [encorafenib]
In short: as §1

[3] = compound: COC(=O)[C@H](CCSC)NC(=O)C1=C(C=C(C=C1)NC[C@H](CS)N)C2=CC=CC=C2
In short: as §1

[4] = compound: COC1=CC=C(C=C1)CN2C=CC3=C2C=C(C=C3)C(=O)NO
In short: as §1

filanesib = compound: CON(C)C(=O)N1N=C(c2cc(F)ccc2F)S[C@@]1(CCCN)c1ccccc1 [filanesib]
In short: as §1

zotarolimus = compound: CO[C@H]1C[C@@H]2CC[C@@H](C)[C@@](O)(O2)C(=O)C(=O)N2CCCC[C@H]2C(=O)O[C@H]([C@H](C)C[C@@H]2CC[C@H](n3cnnn3)[C@H](OC)C2)CC(=O)[C@H](C)/C=C(\C)[C@@H](O)[C@@H](OC)C(=O)[C@H](C)C[C@H](C)/C=C/C=C/C=C/1C [zotarolimus]
In short: as §1

idasanutlin = compound: COc1cc(C(=O)O)ccc1NC(=O)[C@@H]1N[C@@H](CC(C)(C)C)[C@](C#N)(c2ccc(Cl)cc2F)[C@H]1c1cccc(Cl)c1F [idasanutlin]
In short: as §1

alisertib = compound: COc1cc(Nc2ncc3c(n2)-c2ccc(Cl)cc2C(c2c(F)cccc2OC)=NC3)ccc1C(=O)O [alisertib]
In short: as §1

[5] = compound: COc1cc2nc(-c3cc(F)ccc3O)nc(N[C@@H]3CNC[C@H]3C(C)(C)O)c2cc1OC
In short: as §1

gefitinib = compound: COc1cc2ncnc(Nc3ccc(F)c(Cl)c3)c2cc1OCCCN1CCOCC1 [gefitinib]
In short: as §1

[6] = compound: COc1cccc2cc(-c3nc([C@H]4CC[C@H](C(=O)O)CC4)n4ncnc(N)c34)[nH]c12
In short: as §1

lapatinib = compound: CS(=O)(=O)CCNCc1ccc(-c2ccc3ncnc(Nc4ccc(OCc5cccc(F)c5)c(Cl)c4)c3c2)o1 [lapatinib]
In short: as §1

pictilisib = compound: CS(=O)(=O)N1CCN(Cc2cc3nc(-c4cccc5[nH]ncc45)nc(N4CCOCC4)c3s2)CC1 [pictilisib]
In short: as §1

Measured: log2 fold change

RCL1 (UniProt Q9Y2P8)
inactive: saracatinib -0.113 | sotrastaurin -0.024 | alvocidib 0.248 | Tubastatin A 0.159 | [1] 0.1 | defactinib 0.319 | rucaparib 0.289 | [2] 0.196 | encorafenib 0.226 | [3] 0.022 | [4] -0.013 | filanesib 0.286 | zotarolimus 0.101 | idasanutlin 0.169 | alisertib -0.025 | [5] 0.045 | gefitinib -0.018 | [6] -0.135 | lapatinib 0.019 | pictilisib -0.024

RFX1 (UniProt P22670)
inactive: saracatinib 0.038 | sotrastaurin -0.091 | alvocidib 0.004 | Tubastatin A 0.021 | [1] 0.02 | defactinib -0.055 | rucaparib -0.025 | [2] -0.054 | encorafenib 0.004 | [3] 0.017 | [4] -0.016 | filanesib -0.029 | zotarolimus 0.042 | idasanutlin -0.032 | alisertib -0.039 | [5] 0.058 | gefitinib -0.005 | [6] 0.031 | lapatinib 0.051 | pictilisib 0.031

RHOT2 (UniProt Q8IXI1)
inactive: saracatinib -0.062 | sotrastaurin 0.032 | alvocidib -0.01 | Tubastatin A 0.059 | [1] -0.029 | defactinib -0.007 | rucaparib 0.024 | [2] 0.059 | encorafenib 0.076 | [3] -0.031 | [4] 0.027 | filanesib -0.007 | zotarolimus 0.053 | idasanutlin -0.017 | alisertib 0.006 | [5] 0.141 | gefitinib 0.011 | [6] -0.006 | lapatinib -0.028 | pictilisib 0.129

RIOK1 (UniProt Q9BRS2)
inactive: saracatinib 0.023 | sotrastaurin 0.043 | alvocidib 0.076 | Tubastatin A -0.022 | [1] -0.024 | defactinib 0.017 | rucaparib 0.022 | [2] -0.043 | encorafenib -0.02 | [3] 0.046 | [4] -0.036 | filanesib 0.047 | zotarolimus -0.064 | idasanutlin 0.008 | alisertib -0.041 | [5] 0.039 | gefitinib -0.002 | [6] 0.04 | lapatinib 0.006 | pictilisib 0.007

RCN2 isoform 2 (UniProt Q14257)
inactive: saracatinib 0.044 | sotrastaurin 0.012 | alvocidib 0.007 | Tubastatin A 0.006 | [1] 0.014 | defactinib 0.005 | rucaparib -0.047 | [2] -0.055 | encorafenib 0.028 | [3] 0.02 | [4] -0.04 | filanesib -0.002 | zotarolimus 0.018 | idasanutlin 0.031 | alisertib -0.043 | [5] 0.005 | gefitinib 0.017 | [6] 0.045 | lapatinib 0.025 | pictilisib 0

RDH14 (UniProt Q9HBH5)
inactive: saracatinib 0.009 | sotrastaurin 0.204 | alvocidib -0.096 | Tubastatin A -0.036 | [1] 0.139 | defactinib 0 | rucaparib 0.026 | [2] 0.207 | encorafenib -0.049 | [3] -0.021 | [4] 0.012 | filanesib -0.07 | zotarolimus 0.203 | idasanutlin 0.309 | alisertib -0.138 | [5] 0.057 | gefitinib 0.169 | [6] 0.028 | lapatinib 0.175 | pictilisib 0.282

RNF121 (UniProt Q9H920)
inactive: saracatinib 0.035 | sotrastaurin 0.083 | alvocidib 0.008 | Tubastatin A -0.058 | [1] 0.032 | defactinib -0.079 | rucaparib -0.097 | [2] 0.064 | encorafenib 0.046 | [3] -0.053 | [4] 0.082 | filanesib -0.036 | zotarolimus 0.004 | idasanutlin -0.086 | alisertib -0.054 | [5] -0.052 | gefitinib 0.035 | [6] 0.084 | lapatinib 0.021 | pictilisib -0.037

RNF166 (UniProt Q96A37)
inactive: saracatinib -0.042 | sotrastaurin -0.017 | alvocidib 0.081 | Tubastatin A 0 | [1] -0.005 | defactinib 0.009 | [2] -0.051 | [3] -0.066 | filanesib 0.051 | zotarolimus -0.025 | idasanutlin 0.064 | alisertib -0.007 | [5] 0.051 | [6] -0.007 | lapatinib 0.096 | pictilisib -0.047

RNF13 (UniProt O43567)
inactive: saracatinib -0.143 | sotrastaurin -0.032 | alvocidib 0.05 | Tubastatin A 0.045 | defactinib 0.052 | rucaparib -0.027 | [2] -0.075 | encorafenib 0.18 | [3] -0.055 | [4] -0.093 | filanesib -0.032 | zotarolimus -0.132 | idasanutlin 0.047

RIOK2 (UniProt Q9BVS4)
inactive: saracatinib -0.073 | sotrastaurin 0.033 | Tubastatin A 0.067 | [1] 0.195 | defactinib 0.138 | rucaparib 0.014 | [2] 0.069 | encorafenib 0.05 | [3] -0.009 | [4] -0.039 | filanesib 0.064 | zotarolimus -0.017 | idasanutlin 0.01 | alisertib -0.025 | [5] 0.074 | gefitinib -0.101 | [6] -0.057 | lapatinib 0.08 | pictilisib 0.049

RMND1 (UniProt Q9NWS8)
inactive: saracatinib 0.023 | sotrastaurin 0.006 | alvocidib -0.052 | Tubastatin A -0.034 | [1] -0.005 | defactinib -0.002 | rucaparib 0.107 | [2] -0.037 | encorafenib -0.038 | [3] 0.022 | [4] 0.005 | filanesib -0.062 | zotarolimus 0.054 | idasanutlin -0.04 | alisertib -0.031 | [5] 0.044 | gefitinib -0.023 | [6] 0.076 | lapatinib 0.005 | pictilisib 0.191

RIF1 (UniProt Q5UIP0)
inactive: saracatinib -0.028 | sotrastaurin -0.248 | alvocidib 0.09 | Tubastatin A 0.078 | [1] 0.095 | defactinib -0.366 | rucaparib 0.041 | [2] 0.021 | encorafenib -0.163 | [3] -0.205 | filanesib -0.114 | zotarolimus -0.214 | [5] 0.051 | gefitinib 0.023 | lapatinib -0.049 | pictilisib 0.051

RNF123 isoform 2 (UniProt Q5XPI4)
inactive: saracatinib -0.001 | sotrastaurin -0.017 | alvocidib -0.13 | Tubastatin A 0.002 | [1] 0.001 | defactinib -0.139 | rucaparib 0.006 | [2] -0.087 | encorafenib 0.018 | [3] 0 | [4] 0.205 | filanesib 0.032 | zotarolimus 0.02 | idasanutlin -0.045 | alisertib 0.036 | [5] 0.04 | gefitinib -0.022 | [6] -0.014 | lapatinib 0.027 | pictilisib -0.039

RBM7 (UniProt Q9Y580)
inactive: saracatinib -0.302 | sotrastaurin 0.003 | alvocidib -0.072 | Tubastatin A 0.17 | [1] 0.128 | defactinib 0.119 | rucaparib 0.187 | [2] 0.061 | encorafenib 0.055 | [3] 0.065 | filanesib 0.175 | zotarolimus 0.082 | alisertib -0.051 | [5] 0.097 | gefitinib 0.023 | [6] 0.219 | lapatinib 0.039 | pictilisib 0.027

2 records picked at random from the list so far:
RIOK2 (UniProt Q9BVS4)
inactive: saracatinib -0.073 | sotrastaurin 0.033 | Tubastatin A 0.067 | [1] 0.195 | defactinib 0.138 | rucaparib 0.014 | [2] 0.069 | encorafenib 0.05 | [3] -0.009 | [4] -0.039 | filanesib 0.064 | zotarolimus -0.017 | idasanutlin 0.01 | alisertib -0.025 | [5] 0.074 | gefitinib -0.101 | [6] -0.057 | lapatinib 0.08 | pictilisib 0.049

RNF123 isoform 2 (UniProt Q5XPI4)
inactive: saracatinib -0.001 | sotrastaurin -0.017 | alvocidib -0.13 | Tubastatin A 0.002 | [1] 0.001 | defactinib -0.139 | rucaparib 0.006 | [2] -0.087 | encorafenib 0.018 | [3] 0 | [4] 0.205 | filanesib 0.032 | zotarolimus 0.02 | idasanutlin -0.045 | alisertib 0.036 | [5] 0.04 | gefitinib -0.022 | [6] -0.014 | lapatinib 0.027 | pictilisib -0.039

Next part.

RILP (UniProt Q96NA2)
inactive: saracatinib 0.024 | sotrastaurin 0.045 | alvocidib -0.035 | Tubastatin A 0.005 | [1] -0.016 | defactinib -0.054 | rucaparib -0.035 | [2] -0.011 | encorafenib 0.01 | [3] -0.043 | [4] 0.021 | filanesib -0.037 | zotarolimus 0.006 | idasanutlin -0.035 | alisertib -0.122 | [5] -0.071 | gefitinib -0.013 | [6] 0.056 | lapatinib 0.084 | pictilisib 0.102

RIPK2 (UniProt O43353)
inactive: saracatinib -0.048 | sotrastaurin 0.066 | alvocidib -0.014 | Tubastatin A -0.006 | [1] 0.027 | defactinib -0.014 | rucaparib 0.026 | [2] -0.038 | encorafenib -0.01 | [3] 0.015 | [4] 0.181 | filanesib -0.017 | zotarolimus -0.01 | idasanutlin -0.005 | alisertib -0.006 | [5] -0.039 | [6] -0.03 | lapatinib 0.059 | pictilisib -0.083

RBMX (UniProt P38159)
inactive: saracatinib -0.008 | sotrastaurin -0.021 | alvocidib 0.206 | Tubastatin A 0.073 | [1] 0.011 | defactinib 0.288 | rucaparib 0.265 | [2] 0.065 | encorafenib 0.147 | [3] 0.003 | [4] -0.153 | filanesib 0.462 | zotarolimus 0.019 | idasanutlin 0.33 | alisertib -0.133 | [5] -0.062 | gefitinib -0.058 | [6] -0.12 | lapatinib 0.096 | pictilisib -0.089
